Data set [1] deals with T1, Stat6 (IL-4-activated, nuclear extract of WT peritoneal macrophages) (Mus musculus) (UniProt P52633).
T1 sequence (looked up, limits assumed): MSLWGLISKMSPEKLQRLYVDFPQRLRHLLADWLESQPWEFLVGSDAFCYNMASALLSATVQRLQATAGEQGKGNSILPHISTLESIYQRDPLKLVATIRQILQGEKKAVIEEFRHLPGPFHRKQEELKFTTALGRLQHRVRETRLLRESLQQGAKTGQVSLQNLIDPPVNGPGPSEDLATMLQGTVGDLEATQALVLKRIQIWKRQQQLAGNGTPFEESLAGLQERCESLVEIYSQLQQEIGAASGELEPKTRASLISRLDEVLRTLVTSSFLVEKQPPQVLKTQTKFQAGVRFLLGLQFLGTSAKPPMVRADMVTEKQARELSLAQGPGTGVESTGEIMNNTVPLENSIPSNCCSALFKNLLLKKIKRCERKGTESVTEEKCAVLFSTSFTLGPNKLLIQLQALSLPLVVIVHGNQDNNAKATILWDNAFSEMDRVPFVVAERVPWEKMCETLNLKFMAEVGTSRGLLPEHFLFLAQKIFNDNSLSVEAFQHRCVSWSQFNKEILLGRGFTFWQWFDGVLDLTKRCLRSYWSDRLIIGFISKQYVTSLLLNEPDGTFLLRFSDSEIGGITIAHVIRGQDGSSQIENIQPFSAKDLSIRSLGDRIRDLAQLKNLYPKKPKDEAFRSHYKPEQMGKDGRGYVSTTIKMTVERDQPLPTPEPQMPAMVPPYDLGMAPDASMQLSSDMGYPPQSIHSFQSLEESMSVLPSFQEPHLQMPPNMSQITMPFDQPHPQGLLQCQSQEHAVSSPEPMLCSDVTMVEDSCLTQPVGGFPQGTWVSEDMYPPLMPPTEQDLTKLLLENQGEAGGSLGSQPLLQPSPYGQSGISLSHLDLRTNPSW
The experiment in a line: EMSA. To be noted: IL-4 20 ng/mL, 1 h, WT macrophages; EMSA buffer, pH and temperature not given; nuclear extracts of peritoneal macrophages, IL-4 20 ng/mL for 1 h, 32P probes; protein in an extract; label: 32P. In general terms: A gel shift assay detects complexes by their altered migration in electrophoresis.

Data set [2] deals with T2, Stat6 (IL-4-activated, nuclear extract of Trim24-deficient macrophages) (Mus musculus) (UniProt P52633).
T2 sequence (looked up, limits assumed): T1 sequence (looked up, limits assumed)
Put plainly: EMSA. To be noted: IL-4 20 ng/mL, 1 h, Trim24-deficient macrophages, binding increased vs WT; EMSA buffer, pH and temperature not given; nuclear extracts of peritoneal macrophages, IL-4 20 ng/mL for 1 h, 32P probes; protein in an extract; label: 32P.

For at least one entry, the source does not settle the construct or the ends of the probe. At least one result comes from cells or an extract, where the contact may be indirect. For some assays here: At least one verdict was read from the data and is not stated in words by the source. Tags and fusion partners may be left off the protein sequences shown.

Take “ATGCTTTCTTATGAACAGGCTG (double strand) [Stat6 WT probe]”: the binding result in data set [1] and in data set [2] was “binds” throughout.
